Laboratory results from patent US20230105029A1.
Results are given in words; binding and its absence hold for the method and conditions named. Some binding calls cover weakened binding; strength is not graded here.

Molecular target: cynomolgus monkey IL4Rα-his protein (cynomolgus monkey)
Assay: SPR (Biacore), antibody captured, cyno IL4Rα-his flowed

| Binder | binding |
| --- | --- |
| chimeric antibody C2C1A1A1 (antibody, human IgG4 S228P, kappa, V domains shown) VH: EVQLVESGGGLVQPGGSLKLSCAASGFTFSTYGMSWVRQTPDKRLELVATINSNGGSTSYPDSVKGRFTISRDNAKNTLYLQMSSLKSEDTAMFYCARFFRFRNAMDYWGQGTSVTVSS VL: DIQMTQSPASLSASVGETVTITCRTSENIYSYLAWYQQKQGKSPQFLVYNAKTLAEGVPSRFSGSGSGTQFSLNINSLQSEDFGSYYCQHYYGPPTWTFGGGTKLEIKR | binds |
| huC2C1A1A1-V14 (antibody, human IgG4 S228P, kappa, V domains shown) VH: EVQLVESGGGLVQPGGSLRLSCAASGFTFSTYGMSWVRQAPGKGLVWVATINSNGGSTSYPDSVKGRFTISRDNAKNTLYLQMNSLRAEDTAVYYCARFFRFRNAMDYWGQGTLVTVSS VL: DIQMTQSPSSLSASVGQRVTITCRTSENIYSYLAWYQQKQGKPPRFLIYNAKTLAEGVPSRFSGSGSGTEFTLTITSLQAEDFGVYYCQHYYGPPTWTFGPGTKLEIKR | binds |
| chimeric antibody B8G11F2B7G5E8 (antibody, human IgG4 S228P, kappa, V domains shown) VH: EVQLQQSGADLVRPGASVKLSCTASGFNIKDTYMHWVKQRPEQGLEWVGRIDPTNGYTIYASKFQGKATITADTSSNTAYMQLSSLTSGDTAVYHCVSRRPWFAYWGQGTLVTVSA VL: DILMTQTPLSLPVSLGAQASISCRSSQSIVHSNGNTYLEWYLQKPGQSPKLLIYKVTNRFSGVPDRFSGSGSGTDFTLKISRVEAEDLGIYYCFQGSHVPYTFGGGTKLEIKR | binds |
| huB8G11F2B7G5E8-V14 (antibody, human IgG4 S228P, kappa, V domains shown) VH: EVQLVQSGAEVKKPGATVKISCKVSGFNIKDTYMHWVKQAPGKGLEWMGRIDPTNGYTIYASKFQGKATITADTSSNTAYMELSSLRSEDTAVYHCVSRRPWFAYWGQGTLVTVSS VL: DIVMTQTPLSLSVTPGQPASISCRSSQSIVHSNGNTYLEWYLQKPGQSPQLLIYKVTNRFSGVPDRFSGSGSGTDFTLKISRVEAEDVGVYYCFQGSHVPYTFGQGTKLEIKR | binds |
| huB8G11F2B7G5E8-V2 (antibody, human IgG4 S228P, kappa, V domains shown) VH: EVQLVQSGAEVKKPGATVKISCKVSGFNIKDTYMHWVKQAPGKGLEWVGRIDPTNGYTIYASKFQGKATITADTSSNTAYMELSSLRSEDTAVYHCVSRRPWFAYWGQGTLVTVSS VL: DIVMTQTPLSLSVTPGQPASISCRSSQSIVHSNGNTYLEWYLQKPGQSPQLLIYKVTNRFSGVPDRFSGSGSGTDFTLKISRVEAEDVGVYYCFQGSHVPYTFGQGTKLEIKR | binds |
| huB8G11F2B7G5E8-V4 (antibody, human IgG4 S228P, kappa, V domains shown) VH: EVQLVQSGAEVKKPGATVKISCKASGFNIKDTYMHWVKQAPGKGLEWMGRIDPTNGYTIYASKFQGKATITADTSSNTAYMELSSLRSEDTAVYHCVSRRPWFAYWGQGTLVTVSS VL: DIVMTQTPLSLSVTPGQPASISCRSSQSIVHSNGNTYLEWYLQKPGQSPQLLIYKVTNRFSGVPDRFSGSGSGTDFTLKISRVEAEDVGVYYCFQGSHVPYTFGQGTKLEIKR | binds |
